Laboratory results published in patent publication US20170216240A1, “METHODS FOR MODULATING IKS CHANNEL ACTIVITY” (UNIVERSITY OF MIAMI, priority 2014, published 2017).
At least one compound was matched to its structure with a doubt left.

How the values were obtained:
[1] = target: T1, Kv7.1/KCNE1 (Homo sapiens, UniProt P51787); experiment: G(V) shift of Kv7.1 co-expressed with KCNE1 in Xenopus oocytes, two-electrode voltage-clamp; assay type: cell-based; conditions: 70 μM
T1 construct: expressed in transfected cells; host or cells: Xenopus laevis oocytes (cRNA co-injection)
Text: cDNAs encoding human Kv7.1 (GEnBAnk Acc. No. NM_000218) and KCNE1 (NM_000219) were subcloned into the expression vectors pGEM or pXOOM, containing the 5′- and 3′-untranslated regions for Xenopus laevis β-globin as well as a poly-A segment (Jespersen et al., Biotechniques 32, 536-538, 540 (2002)). The truncated KCNE1 construct KCNE1ΔC was constructed by introducing a Stop codon at position 67 using Quikchange site-directed mutagenesis kit (Qiagen). The construct was fully sequenced to ensure proper mutation and absence of unwanted mutations (sequencing by Genewiz). The concatemers E1-Kv7.1-Kv7.1 and E1-Kv7.1 were provided by Dr. R. S. Kass at Columbia University, and can be prepared as described in Chan et al. Journal of General Physiology 132(2), 135-144, (2012)). The E1-Kv7.1 construct was made by linking the C-terminus of KCNE1 to the N-terminus of KCNQ1. The E1-Kv7.1-Kv7.1 construct was made by digesting the E1-Kv7.1 and a Kv7.1-Kv7.1 dimer with Xho1 and inserting the 2-kb fragment from the Kv7.1-Kv7.1 dimer digest into the cut KCNE1-Kv7.1 construct. The DNA encoding E1-Kv7.1-Kv7.1 and E1-Kv7.1 were in the pGEM vector and contained mutations to make the constructs suitable for voltage-clamp fluorometry recordings (Wang et al., J Biol Chem 273, 34069-34074 (1998)). The original KCNE1 and Kv7.1 sequences were therefore removed, one at a time, from the pGEM vector using different restriction enzymes (New England Biolabs). Sequences were separated using gel electrophoresis and harvested using Qiagen gel extraction kit. Corresponding wild type sequences were ligated into the construct using T4 Ligase (New England Biolabs). […] RNA quality was checked by gel electrophoresis, and RNA concentrations were quantified by UV spectroscopy.
Xenopus laevis oocytes were isolated and maintained (Bentzen, B. H. et al. Neuropharmacology 51, 1068-1077 (2006)). […] Currents were measured at room temperature with the two-electrode voltage-clamp technique (CA-1B Dagan amplifier). […]

[2] = tested on: intact guinea pig hearts; experiment: Restoration of QT interval in intact hearts with E4031-induced Long QT; conditions: ECG and ventricular surface action potential
Text: Long QT syndrome was induced in intact guinea pig hearts by administration of the drug E4031, a HERG channel blocker.

## CC/C=C\C/C=C\C/C=C\C/C=C\C/C=C\C/C=C\CCC(=O)NCC(=O)O [DHA-Gly, docosahexaenoyl glycine]
[1]
  c0.5 (pH-dependence of the G(V) shift): 1.3*10^−7
  ΔVmax (pH-dependence of the G(V) shift): −31.6 mV
[1]; pH 7.4
  G(V) shift of a representative cell (control curve shifted): −20 mV
[2]
  QT interval in hearts with prolonged QT induced by E4031: restores the QT interval
